We go through seven substances from article PMC8480281.

Sequences of proteins named here, by UniProt entry; tags and fusion partners are left off.
UniProt Q12948: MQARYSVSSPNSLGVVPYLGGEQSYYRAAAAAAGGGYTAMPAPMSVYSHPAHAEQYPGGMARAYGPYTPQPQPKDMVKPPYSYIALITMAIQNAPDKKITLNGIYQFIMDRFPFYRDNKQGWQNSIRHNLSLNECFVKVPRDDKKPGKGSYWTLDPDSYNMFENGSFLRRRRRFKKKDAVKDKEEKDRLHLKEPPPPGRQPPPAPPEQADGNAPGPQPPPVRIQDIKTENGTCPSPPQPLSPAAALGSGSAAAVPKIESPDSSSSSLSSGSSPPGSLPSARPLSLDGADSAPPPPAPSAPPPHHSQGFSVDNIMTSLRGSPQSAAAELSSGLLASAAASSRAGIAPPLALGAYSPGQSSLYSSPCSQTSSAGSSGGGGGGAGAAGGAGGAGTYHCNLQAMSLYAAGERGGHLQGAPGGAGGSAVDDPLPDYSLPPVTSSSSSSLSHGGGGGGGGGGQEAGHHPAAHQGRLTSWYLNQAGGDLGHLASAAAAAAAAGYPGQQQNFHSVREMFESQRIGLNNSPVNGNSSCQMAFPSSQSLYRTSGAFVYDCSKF
UniProt Q13951: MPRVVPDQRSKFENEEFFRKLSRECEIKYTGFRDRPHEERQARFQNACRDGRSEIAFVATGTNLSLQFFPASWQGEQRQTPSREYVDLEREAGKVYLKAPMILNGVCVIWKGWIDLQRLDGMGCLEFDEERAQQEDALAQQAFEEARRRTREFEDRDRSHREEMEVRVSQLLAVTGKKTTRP
UniProt P49715: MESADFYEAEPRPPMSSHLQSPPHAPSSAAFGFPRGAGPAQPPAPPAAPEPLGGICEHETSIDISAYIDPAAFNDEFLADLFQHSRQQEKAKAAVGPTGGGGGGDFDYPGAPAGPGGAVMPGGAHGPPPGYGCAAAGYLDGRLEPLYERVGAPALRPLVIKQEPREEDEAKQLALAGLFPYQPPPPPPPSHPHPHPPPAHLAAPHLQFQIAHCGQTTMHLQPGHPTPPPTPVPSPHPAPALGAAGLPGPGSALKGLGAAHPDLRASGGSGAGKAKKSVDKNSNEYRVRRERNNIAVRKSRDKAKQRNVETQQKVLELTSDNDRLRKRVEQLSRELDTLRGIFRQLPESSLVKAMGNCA
UniProt Q04726: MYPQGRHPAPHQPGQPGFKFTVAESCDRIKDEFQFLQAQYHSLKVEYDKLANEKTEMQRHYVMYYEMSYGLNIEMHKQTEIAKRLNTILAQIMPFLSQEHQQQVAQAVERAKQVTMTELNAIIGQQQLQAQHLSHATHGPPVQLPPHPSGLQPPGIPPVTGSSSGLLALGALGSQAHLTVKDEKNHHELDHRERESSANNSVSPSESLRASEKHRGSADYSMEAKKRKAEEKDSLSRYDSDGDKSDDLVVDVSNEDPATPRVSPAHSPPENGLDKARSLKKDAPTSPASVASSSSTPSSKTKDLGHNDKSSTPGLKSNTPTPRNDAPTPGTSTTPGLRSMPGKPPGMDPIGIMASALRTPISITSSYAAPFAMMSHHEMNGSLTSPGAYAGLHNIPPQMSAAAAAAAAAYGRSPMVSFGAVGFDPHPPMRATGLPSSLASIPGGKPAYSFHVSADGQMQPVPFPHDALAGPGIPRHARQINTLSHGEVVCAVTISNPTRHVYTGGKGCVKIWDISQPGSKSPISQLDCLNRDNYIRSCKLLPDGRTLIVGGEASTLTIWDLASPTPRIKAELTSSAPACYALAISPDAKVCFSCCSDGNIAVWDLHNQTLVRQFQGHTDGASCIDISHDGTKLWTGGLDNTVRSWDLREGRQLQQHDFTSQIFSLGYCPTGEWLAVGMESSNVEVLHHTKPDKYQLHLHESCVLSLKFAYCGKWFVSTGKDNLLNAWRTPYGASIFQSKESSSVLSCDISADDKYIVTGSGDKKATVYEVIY
UniProt Q92769: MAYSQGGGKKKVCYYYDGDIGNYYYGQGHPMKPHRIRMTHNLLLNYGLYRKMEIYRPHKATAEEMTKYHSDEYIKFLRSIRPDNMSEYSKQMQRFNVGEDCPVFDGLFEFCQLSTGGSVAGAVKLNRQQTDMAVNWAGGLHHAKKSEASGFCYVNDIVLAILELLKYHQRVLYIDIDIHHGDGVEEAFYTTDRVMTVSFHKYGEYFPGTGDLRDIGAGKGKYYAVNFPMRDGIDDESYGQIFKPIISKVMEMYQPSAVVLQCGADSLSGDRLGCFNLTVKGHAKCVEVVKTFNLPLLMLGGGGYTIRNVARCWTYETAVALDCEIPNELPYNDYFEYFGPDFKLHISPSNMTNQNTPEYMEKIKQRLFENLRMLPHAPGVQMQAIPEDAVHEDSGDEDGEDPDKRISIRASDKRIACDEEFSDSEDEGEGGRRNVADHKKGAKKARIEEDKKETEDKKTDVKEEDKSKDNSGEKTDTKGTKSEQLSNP
UniProt Q8TAQ2: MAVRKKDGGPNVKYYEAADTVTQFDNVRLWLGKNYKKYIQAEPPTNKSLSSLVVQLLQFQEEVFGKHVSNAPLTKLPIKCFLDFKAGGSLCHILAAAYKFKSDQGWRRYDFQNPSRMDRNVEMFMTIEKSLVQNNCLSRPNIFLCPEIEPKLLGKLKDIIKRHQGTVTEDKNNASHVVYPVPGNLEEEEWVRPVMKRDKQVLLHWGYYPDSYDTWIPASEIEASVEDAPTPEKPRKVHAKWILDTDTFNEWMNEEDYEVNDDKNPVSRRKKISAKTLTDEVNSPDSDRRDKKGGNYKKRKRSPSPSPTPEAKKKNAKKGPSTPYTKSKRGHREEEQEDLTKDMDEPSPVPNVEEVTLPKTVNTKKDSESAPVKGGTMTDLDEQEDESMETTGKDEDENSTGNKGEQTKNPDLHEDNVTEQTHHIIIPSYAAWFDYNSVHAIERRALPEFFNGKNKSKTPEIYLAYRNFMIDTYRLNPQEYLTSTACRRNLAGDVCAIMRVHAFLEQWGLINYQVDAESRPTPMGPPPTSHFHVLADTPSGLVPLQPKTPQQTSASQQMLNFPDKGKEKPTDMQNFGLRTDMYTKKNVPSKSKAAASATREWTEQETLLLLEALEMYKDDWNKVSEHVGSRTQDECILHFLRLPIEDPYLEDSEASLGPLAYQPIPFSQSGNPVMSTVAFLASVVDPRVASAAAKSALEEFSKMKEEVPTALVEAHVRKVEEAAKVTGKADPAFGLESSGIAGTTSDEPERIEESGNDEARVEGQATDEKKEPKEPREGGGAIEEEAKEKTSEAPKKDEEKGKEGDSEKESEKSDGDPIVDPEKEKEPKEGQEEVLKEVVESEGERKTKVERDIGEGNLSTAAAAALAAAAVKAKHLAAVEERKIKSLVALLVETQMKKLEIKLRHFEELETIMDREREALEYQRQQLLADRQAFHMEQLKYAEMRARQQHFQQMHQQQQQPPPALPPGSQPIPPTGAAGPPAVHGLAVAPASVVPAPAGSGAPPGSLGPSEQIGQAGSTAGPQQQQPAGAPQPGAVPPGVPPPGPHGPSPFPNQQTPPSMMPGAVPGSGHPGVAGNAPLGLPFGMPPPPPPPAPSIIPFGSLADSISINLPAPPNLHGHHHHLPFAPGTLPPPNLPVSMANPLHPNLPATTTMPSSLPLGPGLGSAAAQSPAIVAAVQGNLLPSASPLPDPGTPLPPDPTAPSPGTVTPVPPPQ
UniProt Q09472: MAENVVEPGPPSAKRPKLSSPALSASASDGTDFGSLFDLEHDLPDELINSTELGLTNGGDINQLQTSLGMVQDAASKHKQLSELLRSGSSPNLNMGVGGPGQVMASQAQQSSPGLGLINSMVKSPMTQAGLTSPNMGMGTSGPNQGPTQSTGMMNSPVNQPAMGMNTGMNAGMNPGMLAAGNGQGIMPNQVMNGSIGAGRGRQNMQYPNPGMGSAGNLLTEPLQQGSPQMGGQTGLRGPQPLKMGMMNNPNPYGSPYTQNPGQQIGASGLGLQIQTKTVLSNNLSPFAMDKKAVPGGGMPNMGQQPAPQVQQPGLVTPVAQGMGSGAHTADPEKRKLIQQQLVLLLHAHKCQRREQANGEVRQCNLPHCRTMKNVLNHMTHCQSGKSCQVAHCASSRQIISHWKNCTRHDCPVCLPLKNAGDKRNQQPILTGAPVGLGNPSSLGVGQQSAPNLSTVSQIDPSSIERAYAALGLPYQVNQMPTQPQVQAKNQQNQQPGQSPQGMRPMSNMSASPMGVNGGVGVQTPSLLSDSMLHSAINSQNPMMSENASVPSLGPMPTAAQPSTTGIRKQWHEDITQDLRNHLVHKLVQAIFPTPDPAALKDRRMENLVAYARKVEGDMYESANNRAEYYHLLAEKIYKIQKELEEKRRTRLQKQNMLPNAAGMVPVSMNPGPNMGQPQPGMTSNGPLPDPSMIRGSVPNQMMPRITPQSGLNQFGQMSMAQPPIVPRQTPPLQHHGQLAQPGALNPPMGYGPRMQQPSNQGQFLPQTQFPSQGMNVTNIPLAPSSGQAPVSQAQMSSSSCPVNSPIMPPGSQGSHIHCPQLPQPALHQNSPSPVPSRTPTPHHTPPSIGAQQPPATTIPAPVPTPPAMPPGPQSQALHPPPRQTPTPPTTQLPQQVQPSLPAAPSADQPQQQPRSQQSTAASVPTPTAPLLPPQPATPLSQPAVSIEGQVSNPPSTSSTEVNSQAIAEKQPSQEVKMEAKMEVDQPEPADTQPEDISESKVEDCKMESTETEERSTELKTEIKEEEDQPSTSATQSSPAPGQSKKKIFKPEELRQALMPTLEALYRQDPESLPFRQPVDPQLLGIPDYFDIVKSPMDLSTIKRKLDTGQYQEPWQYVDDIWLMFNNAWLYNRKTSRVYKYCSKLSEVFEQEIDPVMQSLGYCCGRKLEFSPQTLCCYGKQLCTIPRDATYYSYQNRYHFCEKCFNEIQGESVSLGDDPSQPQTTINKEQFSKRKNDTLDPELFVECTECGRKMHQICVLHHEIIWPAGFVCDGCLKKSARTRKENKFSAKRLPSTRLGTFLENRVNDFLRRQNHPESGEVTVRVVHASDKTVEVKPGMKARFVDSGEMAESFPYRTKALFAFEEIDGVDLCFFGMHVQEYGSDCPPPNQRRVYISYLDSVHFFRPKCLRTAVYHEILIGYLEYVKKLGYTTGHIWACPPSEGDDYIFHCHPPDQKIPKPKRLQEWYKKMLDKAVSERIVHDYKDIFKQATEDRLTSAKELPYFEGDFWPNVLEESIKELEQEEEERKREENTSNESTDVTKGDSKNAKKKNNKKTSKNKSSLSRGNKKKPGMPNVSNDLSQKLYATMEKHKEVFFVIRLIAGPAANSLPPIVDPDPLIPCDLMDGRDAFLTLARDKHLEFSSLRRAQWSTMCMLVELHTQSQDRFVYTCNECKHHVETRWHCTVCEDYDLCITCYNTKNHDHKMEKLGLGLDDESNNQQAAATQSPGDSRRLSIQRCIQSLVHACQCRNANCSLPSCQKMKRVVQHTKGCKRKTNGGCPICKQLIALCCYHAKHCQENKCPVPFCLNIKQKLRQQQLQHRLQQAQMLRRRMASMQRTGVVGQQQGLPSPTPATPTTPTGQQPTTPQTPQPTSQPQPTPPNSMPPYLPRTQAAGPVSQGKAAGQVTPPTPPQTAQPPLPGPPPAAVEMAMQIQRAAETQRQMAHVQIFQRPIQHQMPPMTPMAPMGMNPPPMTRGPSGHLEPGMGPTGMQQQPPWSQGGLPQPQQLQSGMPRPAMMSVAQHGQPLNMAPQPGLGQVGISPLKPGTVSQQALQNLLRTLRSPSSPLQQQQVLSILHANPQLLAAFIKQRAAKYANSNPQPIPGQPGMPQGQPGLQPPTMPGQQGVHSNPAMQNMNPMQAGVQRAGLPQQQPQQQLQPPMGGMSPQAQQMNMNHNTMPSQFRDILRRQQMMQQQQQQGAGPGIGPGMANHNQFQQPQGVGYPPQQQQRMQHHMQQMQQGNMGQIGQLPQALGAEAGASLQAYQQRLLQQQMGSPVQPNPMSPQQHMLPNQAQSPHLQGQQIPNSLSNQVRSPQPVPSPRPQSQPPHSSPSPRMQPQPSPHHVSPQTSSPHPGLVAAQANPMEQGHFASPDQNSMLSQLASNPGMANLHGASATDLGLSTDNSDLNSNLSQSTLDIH
UniProt Q13547: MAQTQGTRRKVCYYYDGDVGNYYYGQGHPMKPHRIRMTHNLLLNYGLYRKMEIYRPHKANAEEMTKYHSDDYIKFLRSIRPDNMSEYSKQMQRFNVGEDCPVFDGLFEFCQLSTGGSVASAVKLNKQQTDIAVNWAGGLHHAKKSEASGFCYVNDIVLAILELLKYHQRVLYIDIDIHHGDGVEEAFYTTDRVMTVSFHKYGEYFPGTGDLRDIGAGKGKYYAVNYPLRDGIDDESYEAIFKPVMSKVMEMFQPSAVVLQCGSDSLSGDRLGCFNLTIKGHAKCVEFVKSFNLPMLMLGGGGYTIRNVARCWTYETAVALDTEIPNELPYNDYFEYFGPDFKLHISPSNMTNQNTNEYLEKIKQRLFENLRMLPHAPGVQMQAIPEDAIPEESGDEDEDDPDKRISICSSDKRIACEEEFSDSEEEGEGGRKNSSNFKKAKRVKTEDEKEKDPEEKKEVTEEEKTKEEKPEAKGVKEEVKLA

The test deals with FOXC1 (Forkhead box C1), endogenous (human (endogenous in Fujioka and primary AML cells)) (UniProt Q12948). Kind of test: affinity purification with mass spectrometry; RIME: cells cross-linked with 2 mM DSG then 1% formaldehyde, nuclear fraction sonicated, anti-FOXC1 polyclonal antibody on Protein G Dynabeads overnight at 4°C, washed in RIPA buffer; two analyses in Fujioka cells and one in BB475 primary AML blast ….

These are yes or no findings as the source states them, for the method shown. Binding seen in cells or lysates may run through a third protein. Here binding means that the protein was enriched with, or labelled near, the bait; the list need not be complete.

As for “CBFB, endogenous (from UniProt Q13951 1-182)”, the binding result was “binds”.

For the substance “CEBPA, endogenous (from UniProt P49715 1-358)”, the binding entry is “binds”.

For the substance “Groucho co-repressor family member TLE3, endogenous (from UniProt Q04726 1-772)”, the binding result is recorded as “binds”.

For “HDAC2, endogenous (from UniProt Q92769 1-488)”, the binding result is “binds”.

With “SWI/SNF chromatin remodeling complex protein SMARCC2, endogenous (from UniProt Q8TAQ2 1-1214)”, the binding result is recorded as “binds”.

Turning to “histone acetyltransferase EP300, endogenous (from UniProt Q09472 1-2414)”, the binding result is recorded as “binds”.

In the case of “histone deacetylase HDAC1, endogenous (from UniProt Q13547 1-482)”, the binding entry is “binds”.
